# Results are given in words; binding and its absence hold for the method and conditions named. Some results given as binding are weak or reduced against the parent protein; the word gives no strength. Sequences can lack the tags named with a protein.
# T1: purified Reg Receptor tagged with FLAG epitope, expressed in 293T cells (human) (UniProt O43909)
# T1 sequence: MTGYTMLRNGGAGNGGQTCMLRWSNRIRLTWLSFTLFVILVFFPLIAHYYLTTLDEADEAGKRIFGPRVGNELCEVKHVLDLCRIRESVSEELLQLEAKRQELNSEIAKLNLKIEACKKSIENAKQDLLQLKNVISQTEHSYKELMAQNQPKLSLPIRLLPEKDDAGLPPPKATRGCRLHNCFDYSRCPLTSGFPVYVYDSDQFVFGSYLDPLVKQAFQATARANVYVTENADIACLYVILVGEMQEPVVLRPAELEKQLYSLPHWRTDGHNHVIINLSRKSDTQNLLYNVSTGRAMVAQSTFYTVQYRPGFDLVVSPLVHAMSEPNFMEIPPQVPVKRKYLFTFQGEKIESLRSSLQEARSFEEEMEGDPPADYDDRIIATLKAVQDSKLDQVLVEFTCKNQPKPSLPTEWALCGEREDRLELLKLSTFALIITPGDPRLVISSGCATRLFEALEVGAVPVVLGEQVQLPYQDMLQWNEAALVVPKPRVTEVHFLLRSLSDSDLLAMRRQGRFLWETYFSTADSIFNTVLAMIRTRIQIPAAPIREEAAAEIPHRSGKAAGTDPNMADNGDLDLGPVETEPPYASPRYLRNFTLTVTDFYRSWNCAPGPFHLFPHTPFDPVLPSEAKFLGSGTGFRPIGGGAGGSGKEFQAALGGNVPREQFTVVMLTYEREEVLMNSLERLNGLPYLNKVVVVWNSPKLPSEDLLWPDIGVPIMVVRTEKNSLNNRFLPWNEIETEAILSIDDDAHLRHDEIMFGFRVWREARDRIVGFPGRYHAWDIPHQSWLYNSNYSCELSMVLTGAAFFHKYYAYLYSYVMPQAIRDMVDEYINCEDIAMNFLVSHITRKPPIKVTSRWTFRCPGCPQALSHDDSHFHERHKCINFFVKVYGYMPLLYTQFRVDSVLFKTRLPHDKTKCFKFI
# Key:
# [1] = biological target: T1, purified Reg Receptor tagged with FLAG epitope, expressed in 293T cells (human); assay: plate assay on purified Reg receptor (FIG. 9)
# [2] = biological target: T1, purified Reg Receptor tagged with FLAG epitope, expressed in 293T cells (human); assay: plate assay: purified Reg receptor coated, peptide added, strep-HRP detection, absorbance at 405 nm
binding [1],binding [2],Binder
binds,binds,VWIGLHDP [8-amino acid Reg peptide (SEQ ID NO: 4)]
binds,binds,NVWIGLHDP [9-amino acid Reg peptide (SEQ ID NO: 5)]
binds,binds,WIGLHDP [7-amino acid Reg peptide (SEQ ID NO: 3)]
